Experimental data from PubChem BioAssay AID248 (DTP/NCI, 2004).
The list is a part of this screen's results and no random one: it gathers tests that were run many times, whatever their T/C, doses with no T/C, and many T/C values between a quarter and a half above the control. Further doses and runs are listed elsewhere. T/C is the treated group as % of the vehicle group. Some entries give survivors of the animals treated and no T/C: the source files T/C as zero there, which appears to mark a toxic dose or a test without result, not a measured value. Some survivor counts are full or nearly so, which does not show that the dose was tolerated: survival well below the control is almost never listed, so the zero probably covers shortened survival too. Survivors were counted at the toxicity check, usually on the fifth day, unless a day is given; later deaths do not show. Schedule codes are those of the source, taken here to give the interval after Q, in days (D) or hours (H), and the number of doses after X. Some schedules carry Z or #; the key to these is not given. Where survival is the endpoint, the PubChem record calls one and a half times the control and up active, and a quarter to a half above the control has no call in these data; cut-offs in other NCI protocols can differ.

Test system: L1210 leukemia ip in BDF1 mice, survival T/C
Assay: NCI In Vivo Anticancer Drug Screen. Data for tumor model L1210 Leukemia (intraperitoneal) in B6D2F1 (BDF1) mice
Conditions: T/C endpoint: mean survival time, higher T/C = longer survival
[1] = dose: 200.0 mg/kg/injection, schedule: Q04DX003 (ip), vehicle: saline with Tween-80
[2] = dose: 400.0 mg/kg/injection, schedule: Q04DX003 (ip), vehicle: saline with Tween-80
[3] = dose: 25.0 mg/kg/injection, schedule: Q04DX003 (ip), vehicle: saline
[4] = dose: 100.0 mg/kg/injection, schedule: Q01DX001 (ip), vehicle: carboxymethylcellulose (CMC)
[5] = dose: 400.0 mg/kg/injection, schedule: Q01DX009 (ip), vehicle: saline
[6] = dose: 400.0 mg/kg/injection, schedule: Q04DX003 (ip), vehicle: saline
[7] = dose: 50.0 mg/kg/injection, schedule: Q04DX003 (ip), vehicle: saline
[8] = dose: 100.0 mg/kg/injection, schedule: Q04DX003 (ip), vehicle: saline
[9] = dose: 400.0 mg/kg/injection, schedule: Q01DX001 (ip), vehicle: carboxymethylcellulose (CMC)
[10] = dose: 200.0 mg/kg/injection, schedule: Q04DX003 (ip), vehicle: saline

`CCCCCCC[CH2][Sn]([CH2]CCCCCCC)([NH]S(=O)(=O)c1ccc(C)cc1)[NH]S(=O)(=O)c1ccc(C)cc1` was tested, and the survivor count (dose: 75.0 mg/kg/injection, schedule: Q01DX009 (ip), vehicle: saline sonified) was 1 of 6, the survivor count (dose: 150.0 mg/kg/injection, schedule: Q04DX003 (ip), vehicle: Klucel (hydroxypropylcellulose) (HPC)) was 2 of 6 and the survivor count (dose: 300.0 mg/kg/injection, schedule: Q04DX003 (ip), vehicle: Klucel (hydroxypropylcellulose) (HPC)) was 1 of 6.
In the case of `CCC(C)C(CN)(CCN(C)CC)c1cccc2ccccc12` (stereo not given), the survivor count [1] is reported as 3 of 6 and the survivor count [2] is reported as 0 of 6.
`CC(=O)n1cc(F)c(=O)[nH]c1=O` was tested, and the T/C (dose: 4.8 mg/kg/injection, schedule: Q01DX009 (ip), vehicle: saline) was 136 % of control, the T/C (dose: 6.25 mg/kg/injection, schedule: Q01DX009 (ip), vehicle: saline) was 133 % of control and the T/C (dose: 7.2 mg/kg/injection, schedule: Q01DX009 (ip), vehicle: saline) was 146 % of control. For the same molecule, the T/C (dose: 12.5 mg/kg/injection, schedule: Q01DX009 (ip), vehicle: saline) was 138 % of control, the T/C [3] was 139 % of control and the T/C (dose: 50.0 mg/kg/injection, schedule: Q01DX009 (ip), vehicle: saline) was 128 % of control. The T/C (dose: 50.0 mg/kg/injection, schedule: Q04DX003 (ip), vehicle: saline with Tween-80) was 144 % of control, the T/C (dose: 75.0 mg/kg/injection, schedule: Q01DX001 (ip), vehicle: saline) was 134 % of control and the survivor count [1] was 6 of 6. The survivor count [2] was 6 of 6.
For `Nc1ncc(C=Nc2ccc(C(=O)O)cc2)c(N)n1`, the survivor count [4] was 6 of 6.
In the case of `Cc1ccc(C(=O)/C(Cl)=N/O)cc1`, the survivor count (dose: 200.0 mg/kg/injection, schedule: Q01DX001 (ip), vehicle: other) is reported as 2 of 4 and the survivor count (dose: 400.0 mg/kg/injection, schedule: Q01DX001 (ip), vehicle: other) is reported as 0 of 4.
With `FC(F)(F)/C([S-])=C(/[S-])C(F)(F)F.FC(F)(F)/C([S-])=C(/[S-])C(F)(F)F.FC(F)(F)/C([S-])=C(/[S-])C(F)(F)F.FC(F)(F)/C([S-])=C(/[S-])C(F)(F)F.[Co+3].[Co+3]` the survivor count (dose: 50.0 mg/kg/injection, schedule: Q01DX009 (ip), vehicle: other) was 1 of 6.
For `O=c1ccnc(/C=C/c2ccc(Cl)cc2)[nH]1`, the survivor count (dose: 100.0 mg/kg/injection, schedule: Q01DX009 (ip), vehicle: saline with Tween-80) was 6 of 6.
`O=C(NS(=O)(=O)c1ccc(Cl)c(Cl)c1)NS(=O)(=O)c1ccc(Cl)c(Cl)c1` was tested, and the survivor count (dose: 400.0 mg/kg/injection, schedule: Q01DX001 (ip), vehicle: saline with Tween-80) was 3 of 6.
For `CC1(COCCOCC2(C)CO2)CO1` (stereo not given), the T/C (dose: 266.0 mg/kg/injection, schedule: Q01DX009 (ip), vehicle: saline) was 126 % of control, the T/C [5] was 134 % of control and the T/C [6] was 133 % of control.
For `O=C(Nc1cc(NC(=O)Nc2cccc(C3=NCCN3)c2)cc(C(=O)O)c1)Nc1cccc(C2=NCCN2)c1`, the survivor count (dose: 480.0 mg/kg/injection, schedule: Q01DX Z (ip), vehicle: carboxymethylcellulose (CMC)) was 4 of 6.
With `CC12CCCCC1CC(=O)/C(=C\O)C2` (stereo not given) the survivor count (dose: 100.0 mg/kg/injection, schedule: Q04DX002 (ip), vehicle: DMSO) was 2 of 3.
For `CC(=O)OC12CC[N+]3(C)CCCCC3C1=Nc1ccccc12` (stereo not given), the survivor count [7] was 6 of 6, the survivor count [4] was 0 of 4 and the survivor count [8] was 0 of 6. For the same molecule, the survivor count (dose: 200.0 mg/kg/injection, schedule: Q01DX001 (ip), vehicle: carboxymethylcellulose (CMC)) was 0 of 4 and the survivor count [9] was 0 of 4.
`ClC1=C(Cl)C2(Cl)C3C4C=CC(C4)C3N1C2(Cl)Cl` (stereo not given) was tested, and the survivor count (dose: 200.0 mg/kg/injection, schedule: Q01DX001 (ip), vehicle: saline with Tween-80) was 0 of 6.
`CC(=O)OCc1ccccn1` was tested, and the survivor count [5] was 3 of 6.
With `Cc1c(C)c(CO)c(C)c(C)c1CO` the survivor count (dose: 100.0 mg/kg/injection, schedule: Q04DX003 (ip), vehicle: Klucel (hydroxypropylcellulose) (HPC)) was 3 of 6, the survivor count (dose: 200.0 mg/kg/injection, schedule: Q04DX003 (ip), vehicle: Klucel (hydroxypropylcellulose) (HPC)) was 0 of 6 and the survivor count (dose: 400.0 mg/kg/injection, schedule: Q04DX003 (ip), vehicle: Klucel (hydroxypropylcellulose) (HPC)) was 0 of 6.
With `ClCc1ccccc1CCl` the survivor count (dose: 20.0 mg/kg/injection, schedule: Q01DX015 (ip), vehicle: carboxymethylcellulose (CMC)) was 6 of 6 and the survivor count (dose: 40.0 mg/kg/injection, schedule: Q01DX015 (ip), vehicle: carboxymethylcellulose (CMC)) was 6 of 6.
`CN1CCC=C(CN2c3ccccc3Sc3ccccc32)C1` was tested, and the survivor count [10] was 1 of 6 and the survivor count [6] was 0 of 6.
For `O=C(CCCCCCC(=O)C[N+]12CCC(CC1)C(O)C2)C[N+]12CCC(CC1)C(O)C2` (stereo not given), the survivor count (dose: 12.5 mg/kg/injection, schedule: Q04DX003 (ip), vehicle: saline) was 0 of 6, the survivor count [3] was 0 of 6 and the survivor count [7] was 0 of 6. The survivor count [8] was 0 of 6, the survivor count [10] was 0 of 6 and the survivor count [6] was 0 of 6.
For `N#CC(C#N)N=O` (tested in a mixture with another compound), the survivor count (dose: 400.0 mg/kg/injection, schedule: Q04DX002 (ip), vehicle: saline) was 0 of 3.
In the case of `NC(=O)C(Br)CBr` (stereo not given), the survivor count (dose: 100.0 mg/kg/injection, schedule: Q01DX009 (ip), vehicle: saline) is reported as 6 of 6, the survivor count [10] is reported as 0 of 6 and the survivor count [6] is reported as 0 of 6.
In the case of `CC(C)(C)CC(Cl)Cl`, the survivor count (dose: 400.0 mg/kg/injection, schedule: Q01DX009 (ip), vehicle: Klucel (hydroxypropylcellulose) (HPC)) is reported as 0 of 6.
With `CNC(=O)N(c1ccccc1)C1CCCCC1` the survivor count [6] was 6 of 6.
`CCCCCCCCCCCCCCCCCc1c(Cl)c(Cl)c(Cl)c(Cl)c1Cl` was tested, and the survivor count (dose: 200.0 mg/kg/injection, schedule: Q01DX001 (ip), vehicle: Klucel (hydroxypropylcellulose) (HPC)) was 6 of 6 and the survivor count (dose: 400.0 mg/kg/injection, schedule: Q01DX001 (ip), vehicle: Klucel (hydroxypropylcellulose) (HPC)) was 6 of 6.
For `CCCCC/C(C)=N\Nc1ccccn1`, the survivor count (dose: 100.0 mg/kg/injection, schedule: Q01DX009 (ip), vehicle: Klucel (hydroxypropylcellulose) (HPC)) was 1 of 6, the survivor count (dose: 150.0 mg/kg/injection, schedule: Q01DX009 (ip), vehicle: acetone) was 0 of 6 and the survivor count [1] was 1 of 6. The survivor count (dose: 225.0 mg/kg/injection, schedule: Q01DX009 (ip), vehicle: acetone) was 0 of 6.
For `CN=C(N)N(C)/N=C(C)\C=N\N(C)C(N)=NC`, the survivor count (dose: 960.0 mg/kg/injection, schedule: Q01DX Z (oral), vehicle: carboxymethylcellulose (CMC)) was 5 of 6 and the survivor count (dose: 1920.0 mg/kg/injection, schedule: Q01DX Z (oral), vehicle: carboxymethylcellulose (CMC)) was 0 of 6.
`CN(C)CCc1ccc2cc3ccc(CCN(C)C)cc3nc2c1` was tested, and the survivor count (dose: 100.0 mg/kg/injection, schedule: Q04DX002 (ip), vehicle: saline with Tween-80) was 1 of 3, the survivor count (dose: 200.0 mg/kg/injection, schedule: Q04DX002 (ip), vehicle: saline with Tween-80) was 1 of 3 and the survivor count (dose: 400.0 mg/kg/injection, schedule: Q04DX002 (ip), vehicle: saline with Tween-80) was 1 of 3.
With `c1cnc2c3c(ccc2c1)CN(C12CC4CC(CC(C4)C1)C2)CO3` the survivor count [2] was 0 of 6.
For `CCCCCCCCC[As](=O)(O)O`, the survivor count (dose: 12.5 mg/kg/injection, schedule: Q01DX001 (ip), vehicle: carboxymethylcellulose (CMC)) was 0 of 4, the survivor count (dose: 25.0 mg/kg/injection, schedule: Q01DX001 (ip), vehicle: carboxymethylcellulose (CMC)) was 0 of 4 and the survivor count (dose: 50.0 mg/kg/injection, schedule: Q01DX001 (ip), vehicle: carboxymethylcellulose (CMC)) was 0 of 4.
`CCC(C)n1ncc2c(N(C)C)ncnc21` (stereo not given) was tested, and the survivor count (dose: 200.0 mg/kg/injection, schedule: Q01DX009 (ip), vehicle: saline) was 6 of 6 and the survivor count (dose: 400.0 mg/kg/injection, schedule: Q01DX001 (ip), vehicle: saline) was 1 of 6.
`CC(=O)N(c1ccccc1)c1ccc([N+](=O)[O-])cc1[N+](=O)[O-]` was tested, and the T/C [9] was 132 % of control.
